{"source": "paper PMC6225628", "biological_target": "TRIAD1 (ARIH2, Ariadne RBR E3 ubiquitin protein ligase 2) (rat (endogenous in rat brain))", "test": "co-IP; endogenous proteins, rat brain after TBI; immunoprecipitation and Western blot; which protein was precipitated is not given", "note": "These are yes or no findings as the source states them, for the method shown. Binding seen in cells or lysates may run through a third protein. Binding calls can cover weak binding; strength is not graded here.", "data": [{"binder": "DISC1 (protein, UniProt Q810H6 1-846) MQGAGSRGAWIHSPSHCPGNGHGSPPAVAPQRRRLTRRPGYMRSTASPGIGFLSPAVGMPRPISAGLTGQEFYPSQSKARQCSLDLRSHCQDSLVGNPFLKGSLGPAVTSVGHLHPAQGSMRERMVHSGVHSGNDRRQSERLTGDSGCRQEFLSSDSSKSLASSLDVAWSKGSRGLKTVRPLVSPASNGPVDIPSLPGFQDTFTSNFSFIRLSLGAAGERGEAEGCLPSREAEPLHQSPQEMAAEGSGSDRPHGEPRHLWTFSLHAAPGLVDLAQGTRSNRQPECGMVSSSDAGFSSQDASPAGGRSDQDGGWADAHGWHALLREWEPMLQDYLLSNRRQLEVTSLILKLQKLQEKAVEDGDYDMAETLRQRLEDLEQEKGRLPWALPSQQPALRSFLGYLATQTHAALHGAPQRAGSDDPEAPLEGQRRTTAQDSLPGLAVTRRDWLMREKEQLQKEIEALRARVSVLEAKEQRLSQELEDQEMLLRWQGCDQMALVAQLSPGQLQEVSKALGETLTSARWAPFRVEPPETLRSLRERTKSLDLAVRELTEQVCSGEKLCSSLRKRLADLDTRLPALLEAKMLALSGSCFSTAKELAEEIWAVSSEREGLEMFLGRLLALSSRNTRRLGSVKEDYLRCRQDLALQEAAHKTRVKANTVKCTEVLEGQLSCCRCPLLERVWKADLEACQLLMQSLEIQEAGSSSHVEDEKQVHSTGEAAQTAALAVPRTPHPEEEKSPLQVLCEWNTYSASLPHCAAGLWKEESHVVFAEVGDKCEAIGMRLLHLEDQLLGAMHGHDEALFQSLQGELQMVKETLQTMFLQLQPAKEAGGEASASYSTAGAQEAED", "values": [{"measurement": "binding", "result": "binds"}]}]}
